# Where a protein sequence is shown, tags need not be part of it.
# Target: T1, sHdrR-trunc (Hyphomicrobium denitrificans XT) (UniProt D8JT17)
# T1 sequence (looked up): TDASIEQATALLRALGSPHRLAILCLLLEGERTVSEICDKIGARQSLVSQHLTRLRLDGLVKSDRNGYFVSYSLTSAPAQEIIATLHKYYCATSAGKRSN
# Experiment: EMSA
# Conditions: 100 and 400 nM protein, 17 nM DNA, 1 mM DTT, 10 mM Tris-HCl, 50 mM KCl, pH 8.0 (1x of 10x buffer), about 7% glycerol, 20 min RT then 30 min at 30 C with 17 nM DNA, 6% native PAGE, 0.25x TBE, 4 C, recombinant protein, residues 26-125, label: none (SYBR Green I stain), probe letters rebuilt from the primers and the genome
sequence,measurement,value
TTCCCGCCCCGTCTTGGTTTTTGTTTTACTTGCCTACCGAATACGTTTTGCAGCGAAGCGCCCTTGAGGGCGCTCGATCTCTTCCGGTGAGGGTTCGTGTCGATTGTTCAGCGCTCGCCTGGAAGTCGGCGCCAGCTATTAGATATGAATATTCCTATATTCAAATATAAATCGCAACGGAAGCGCATCGTCAAGGCCGTGCTCCGTGGTGCGCTACGCATCACCGCGTACGTTTGAGAACACAGCTTTGCCCGAAAATATATAAAGATATGAATATGTTGATGCTTAGATTTGAGTTGCAAGCTCTCTGCTGCATCGGTAGGTGATTAGCGAATATTCACGCTTTTTTGGATGCAACTCCT (double strand) [soxT1A-shdrR intergenic region],binding result,binds

# Source: paper PMC12423496
